{"source": "the supplement of paper PMC3334620", "note": "Whole data set: some 33,000 sequences, median “E-score (-0.5 to 0.5)” near -0.0059, cut for the highest 2% near 0.26. Some of the results follow."}
{"biological_target": "T1, Cin5 (UniProt P40917)", "T1 sequence": "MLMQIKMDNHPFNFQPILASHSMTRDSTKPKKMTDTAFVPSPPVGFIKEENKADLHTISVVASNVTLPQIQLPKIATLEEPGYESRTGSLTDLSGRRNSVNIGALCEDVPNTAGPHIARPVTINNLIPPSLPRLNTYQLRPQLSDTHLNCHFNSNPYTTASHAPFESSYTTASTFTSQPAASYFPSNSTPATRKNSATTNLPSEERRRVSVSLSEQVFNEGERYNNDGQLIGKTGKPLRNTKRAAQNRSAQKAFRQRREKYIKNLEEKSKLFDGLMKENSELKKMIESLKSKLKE", "assay": "PBM E-score (8-mer binding enrichment) (E-score (-0.5 to 0.5)); higher = stronger / more preferred TF binding", "settings": "protein concentration: 100 nM; construct: GST-full length", "summary_of_the_method": "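The E-score, a modified Wilcoxon-Mann-Whitney statistic, was computed by the Universal PBM Analysis Suite for every ungapped eight-base word pooled with its reverse complement. Scans behind it were normalised with masliner after bound GST-tagged yeast transcription factors were detected with fluorescent anti-GST. The proteins, at about 100-200 nM, had been applied to universal all-10-mer Agilent arrays made double-stranded by primer extension.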"}
{"sequence": "ACCTCAAC", "PBM E-score": 0.0171}
{"sequence": "CCATCAGA", "PBM E-score": -0.0356}
{"sequence": "CAAAGAAC", "PBM E-score": -0.0292}
{"sequence": "GTATAGAA", "PBM E-score": 0.0354}
{"sequence": "AGTGATCG", "PBM E-score": 0.0242}
{"sequence": "ATGAACGG", "PBM E-score": -0.0835}
{"sequence": "CTAGCGTC", "PBM E-score": -0.166}
{"sequence": "ACTGTATA", "PBM E-score": 0.0678}
{"sequence": "CAACCTAA", "PBM E-score": 0.108}
{"sequence": "GAAAGGCA", "PBM E-score": -0.0198}
{"sequence": "GGAGTGGA", "PBM E-score": -0.12}
{"sequence": "ATCTGTAC", "PBM E-score": 0.214}
{"sequence": "CATGAAAC", "PBM E-score": 0.111}
{"sequence": "ACGGCGAA", "PBM E-score": -0.00499}
{"sequence": "TACGTCCA", "PBM E-score": -0.164}
{"sequence": "GTCGACGA", "PBM E-score": -0.0261}
{"sequence": "CCCTGGTA", "PBM E-score": -0.196}
{"sequence": "ATACCATA", "PBM E-score": 0.259}
{"sequence": "ACGCCCGT", "PBM E-score": 0.106}
{"sequence": "CGTTGAGC", "PBM E-score": -0.0617}
{"sequence": "TGGACGAA", "PBM E-score": 0.0682}
{"sequence": "CATTAAGG", "PBM E-score": 0.00518}
{"sequence": "CGACACCG", "PBM E-score": -0.236}
{"sequence": "AGCTATGG", "PBM E-score": -0.0652}
{"sequence": "AAATAACT", "PBM E-score": 0.226}
{"sequence": "CTGGTGCC", "PBM E-score": -0.283}
{"sequence": "TAAAATAA", "PBM E-score": 0.141}
{"sequence": "CGGACTTC", "PBM E-score": -0.131}
{"sequence": "GCTCGACC", "PBM E-score": -0.178}
{"sequence": "ACAGTAAT", "PBM E-score": 0.196}
{"sequence": "GGACAGTA", "PBM E-score": 0.152}
{"sequence": "CTGCTTTA", "PBM E-score": 0.278}
{"sequence": "CACCTGAA", "PBM E-score": 0.0306}
{"sequence": "CACCTATC", "PBM E-score": 0.0277}
{"sequence": "TCGGTTCA", "PBM E-score": -0.154}
{"sequence": "CTACCGGA", "PBM E-score": -0.106}
{"sequence": "ATTCTGCG", "PBM E-score": 0.137}
{"sequence": "GATGCTCA", "PBM E-score": -0.0503}
{"sequence": "AATCTGGC", "PBM E-score": -0.0968}
{"sequence": "AACGAGCG", "PBM E-score": -0.0134}
{"sequence": "AAGTCGCG", "PBM E-score": 0.0757}
{"sequence": "CCGTCAGA", "PBM E-score": -0.178}
{"sequence": "CCGCCGGC", "PBM E-score": 0.00483}
{"sequence": "ACTGAAAC", "PBM E-score": 0.243}
{"sequence": "CTTTCCCC", "PBM E-score": 0.0318}
{"sequence": "ACACAAAA", "PBM E-score": 0.0942}
{"sequence": "AGCTGCTG", "PBM E-score": 0.022}
{"sequence": "ATGTTGTA", "PBM E-score": 0.263}
{"sequence": "ACTGTGTG", "PBM E-score": -0.0399}
{"sequence": "AACCTAGT", "PBM E-score": -0.0128}
{"sequence": "ATTTTTAC", "PBM E-score": 0.0248}
{"sequence": "CGTCTATA", "PBM E-score": 0.102}
{"sequence": "ACAGTAGT", "PBM E-score": 0.0569}
{"sequence": "GCGTAGAA", "PBM E-score": -0.0476}
{"sequence": "CACGACCC", "PBM E-score": -0.119}
{"sequence": "AAGTGTGT", "PBM E-score": -0.0443}
{"sequence": "GGAAAGGA", "PBM E-score": -0.0917}
{"sequence": "GACCTAAC", "PBM E-score": 0.0765}
{"sequence": "AACGCCGG", "PBM E-score": -0.0293}
{"sequence": "CTAAACGA", "PBM E-score": 0.0794}
{"sequence": "CTTCTCGA", "PBM E-score": 0.0744}
{"sequence": "CATATAGA", "PBM E-score": 0.171}
{"sequence": "ATCTGGTG", "PBM E-score": 0.175}
{"sequence": "ATGCCCAA", "PBM E-score": -0.0408}
{"sequence": "ACGCGATC", "PBM E-score": 0.24}
{"sequence": "AGTCTGAT", "PBM E-score": -0.0749}
{"sequence": "CGAGGACA", "PBM E-score": -0.0409}
{"sequence": "GAGACACC", "PBM E-score": -0.169}
{"sequence": "GCCGATGA", "PBM E-score": -0.0683}
{"sequence": "GGCTTCAC", "PBM E-score": -0.207}
{"sequence": "TAATCACA", "PBM E-score": 0.222}
{"sequence": "ACGAAAGC", "PBM E-score": -0.102}
{"sequence": "ATGAACCG", "PBM E-score": -0.0498}
{"sequence": "ACCTTAAG", "PBM E-score": -0.071}
{"sequence": "CCCCGAAA", "PBM E-score": 0.0433}
{"sequence": "AATCGTCG", "PBM E-score": 0.14}
{"sequence": "CGACCCCC", "PBM E-score": -0.452}
{"sequence": "GAGGTCAC", "PBM E-score": -0.133}
{"sequence": "ACCGGTGG", "PBM E-score": -0.337}
{"sequence": "GGACTCAC", "PBM E-score": -0.112}
{"sequence": "CCACAGAC", "PBM E-score": -0.0305}
{"sequence": "AATGACCG", "PBM E-score": -0.152}
{"sequence": "CCGTCGAC", "PBM E-score": -0.112}
{"sequence": "CCCCAGGA", "PBM E-score": -0.307}
{"sequence": "GCTGATAC", "PBM E-score": -0.0491}
{"sequence": "ACGTTGAC", "PBM E-score": -0.0754}
